Experimental findings from article PMC7561103, “Notch dimerization and gene dosage are important for normal heart development, intestinal stem cell maintenance, and splenic marginal zone B-cell homeostasis during mite infestation” (PLoS Biology, 2020) are described below.

The target in assay [1] is mouse N1ICD (aa 1744–2113) (mouse) (UniProt Q01705). Nature of the assay: native gel or EMSA; 2xCSL probe; band intensities fitted to a 2-site binding model with cooperativity factor C; RBPj 2.5 to 640 nM, N1ICD and MAML at 2 uM; association of two NTCs on DNA; both purified.
In assay [2] the target is mouse N1^RAICD (aa 1744–2113) (mouse) (UniProt Q01705). The description is as above.
Assay [3] has the same target. Description: native gel or EMSA; 1xSPS probe; band intensities fitted to a 2-site binding model with cooperativity factor C (Kd,2nd = Kd,1st/C); RBPj 2.5 to 640 nM, N1ICD and MAML at 2 uM; association of two NTCs on DNA; both purified. (A gel shift assay detects complexes by their altered migration in electrophoresis.)

Results are given in words; binding and its absence hold for the method and conditions named.

B1: mouse N1ICD (aa 1744–2113) (domain or fragment, UniProt Q01705 1744-2113, looked up)
chain: VLLSRKRRRQHGQLWFPEGFKVSEASKKKRREPLGEDSVGLKPLKNASDGALMDDNQNEWGDEDLETKKFRFEEPVVLPDLSDQTDHRQWTQQHLDAADLRMSAMAPTPPQGEVDADCMDVNVRGPDGFTPLMIASCSGGGLETGNSEEEEDAPAVISDFIYQGASLHNQTDRTGETALHLAARYSRSDAAKRLLEASADANIQDNMGRTPLHAAVSADAQGVFQILLRNRATDLDARMHDGTTPLILAARLAVEGMLEDLINSHADVNAVDDLGKSALHWAAAVNNVDAAVVLLKNGANKDMQNNKEETPLFLAAREGSYETAKVLLDHFANRDITDHMDRLPRDIAQERMHHDIVRLLDEYNLVRSPQ
notes: Notch1 intracellular domain (RAM-ANK), mouse, residues 1744-2113; also called N1 RAM-ANK domain; WT N1ICD
For the molecule B1, the binding entry in assay [1] was “no binding (condition: on the 2xCSL probe)”.

B2: mouse N1^RAICD (aa 1744–2113) (domain or fragment, UniProt Q01705 1744-2113, looked up)
chain: VLLSRKRRRQHGQLWFPEGFKVSEASKKKRREPLGEDSVGLKPLKNASDGALMDDNQNEWGDEDLETKKFRFEEPVVLPDLSDQTDHRQWTQQHLDAADLRMSAMAPTPPQGEVDADCMDVNVRGPDGFTPLMIASCSGGGLETGNSEEEEDAPAVISDFIYQGASLHNQTDRTGETALHLAARYSRSDAAKRLLEASADANIQDNMGRTPLHAAVSADAQGVFQILLRNAATDLDARMHDGTTPLILAARLAVEGMLEDLINSHADVNAVDDLGKSALHWAAAVNNVDAAVVLLKNGANKDMQNNKEETPLFLAAREGSYETAKVLLDHFANRDITDHMDRLPRDIAQERMHHDIVRLLDEYNLVRSPQ
notes: Notch1 intracellular domain (RAM-ANK), mouse, residues 1744-2113, with Arg1974 in the ANK domain changed to alanine; also called RA mutant; N1^R1974A
Turning to B2, the binding result in assay [2] is reported as “no binding (condition: on the 2xCSL probe)”; in assay [3], “no binding (tested: N1^RAICD at 2 uM, RBPj up to 640 nM)”.
